Experiment [1] has as its target GFP-tagged VEGFR2 (vascular endothelial growth factor receptor 2) (human) (UniProt P35968). As to the kind of experiment: affinity purification with mass spectrometry; CiGEnC stably expressing GFP-VEGFR2 or GFP, serum-starved 1 h, stimulated with 40 ng/ml VEGF over a 30-min time course; lysis in 20 mM Tris pH7.5, 137 mM NaCl, 0.5% NP-40, 1 mM EDTA; GFP-Trap agarose beads 1 h at 4 °C; LTQ-Orbitrap Velos.

The chains behind the UniProt entries cited, without tags or fusion partners. Residues count along the entry.
UniProt P35968, residues 20-1356: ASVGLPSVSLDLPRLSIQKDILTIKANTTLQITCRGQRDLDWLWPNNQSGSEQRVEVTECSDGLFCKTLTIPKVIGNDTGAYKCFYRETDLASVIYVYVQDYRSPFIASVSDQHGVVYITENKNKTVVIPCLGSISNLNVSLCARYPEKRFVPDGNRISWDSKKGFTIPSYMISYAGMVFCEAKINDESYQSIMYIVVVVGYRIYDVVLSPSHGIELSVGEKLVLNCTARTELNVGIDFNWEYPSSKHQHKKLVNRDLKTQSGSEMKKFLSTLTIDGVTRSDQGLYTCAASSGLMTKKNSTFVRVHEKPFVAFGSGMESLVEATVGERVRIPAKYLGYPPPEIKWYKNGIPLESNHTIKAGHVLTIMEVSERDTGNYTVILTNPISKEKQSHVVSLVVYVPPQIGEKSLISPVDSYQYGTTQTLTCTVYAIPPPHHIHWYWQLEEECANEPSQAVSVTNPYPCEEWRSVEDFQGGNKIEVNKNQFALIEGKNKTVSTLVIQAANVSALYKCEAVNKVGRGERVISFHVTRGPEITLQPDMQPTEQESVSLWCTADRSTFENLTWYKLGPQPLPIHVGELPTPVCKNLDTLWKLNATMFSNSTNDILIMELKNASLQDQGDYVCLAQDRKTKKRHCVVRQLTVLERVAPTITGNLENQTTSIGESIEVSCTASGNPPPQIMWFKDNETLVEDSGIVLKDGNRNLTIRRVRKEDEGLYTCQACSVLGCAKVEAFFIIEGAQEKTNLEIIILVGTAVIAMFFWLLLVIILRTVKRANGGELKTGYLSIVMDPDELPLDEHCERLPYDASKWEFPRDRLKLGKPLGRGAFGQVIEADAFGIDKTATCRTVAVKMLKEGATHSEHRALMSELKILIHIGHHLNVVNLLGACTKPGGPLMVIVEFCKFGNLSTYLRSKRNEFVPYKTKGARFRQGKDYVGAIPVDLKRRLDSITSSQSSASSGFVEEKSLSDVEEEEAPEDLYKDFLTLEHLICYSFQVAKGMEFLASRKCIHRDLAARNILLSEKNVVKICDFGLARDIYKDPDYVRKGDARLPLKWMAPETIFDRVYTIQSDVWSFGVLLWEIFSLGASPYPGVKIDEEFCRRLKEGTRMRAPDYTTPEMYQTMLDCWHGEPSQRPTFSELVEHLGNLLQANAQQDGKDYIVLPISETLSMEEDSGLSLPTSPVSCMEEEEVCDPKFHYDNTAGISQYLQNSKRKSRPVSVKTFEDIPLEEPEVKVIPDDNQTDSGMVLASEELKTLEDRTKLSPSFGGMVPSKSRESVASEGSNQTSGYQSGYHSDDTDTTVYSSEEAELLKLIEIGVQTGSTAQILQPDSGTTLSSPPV
UniProt Q9UKB1: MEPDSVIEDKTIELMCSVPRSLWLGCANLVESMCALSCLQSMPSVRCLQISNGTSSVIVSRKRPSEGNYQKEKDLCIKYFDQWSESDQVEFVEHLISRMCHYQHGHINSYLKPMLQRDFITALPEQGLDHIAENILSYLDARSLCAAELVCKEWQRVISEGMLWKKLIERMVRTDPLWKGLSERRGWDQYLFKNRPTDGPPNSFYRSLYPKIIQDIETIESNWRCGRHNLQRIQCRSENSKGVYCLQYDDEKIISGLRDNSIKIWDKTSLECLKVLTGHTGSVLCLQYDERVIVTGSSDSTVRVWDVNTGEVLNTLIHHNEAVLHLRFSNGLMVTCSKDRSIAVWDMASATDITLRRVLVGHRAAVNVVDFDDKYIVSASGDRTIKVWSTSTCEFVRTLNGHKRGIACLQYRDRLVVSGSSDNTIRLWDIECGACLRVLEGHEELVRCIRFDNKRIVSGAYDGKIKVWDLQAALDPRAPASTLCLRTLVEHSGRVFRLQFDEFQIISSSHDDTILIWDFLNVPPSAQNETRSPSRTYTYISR

Experiment [2] shares this target. Described as above. This is another data set of the same source.

Read-outs that look alike come from different tables or passages of the source. No constants are given. Whether binding was seen depends on the method and setting. In cells and extracts the contact can be indirect. A yes stands for co-enrichment or nearness to the bait. Other partners may have been found. For some assays here: A no says only that the protein was not detected with the bait.

Consider “ubiquitin E3 ligase β-Trcp2 (endogenous, CiGEnC) (from UniProt Q9UKB1 1-542) (enzyme)”, for which the binding result in experiment [1] is “binds”.

B1: raftlin-2 (endogenous, CiGEnC) (protein, UniProt Q52LD8 1-501)
chain: MGCGLRKLEDPDDSSPGKIFSTLKRPQVETKTEFAYEYVLLDFTLQASSNPEVIKINSILDIVTKVENYYLKGYIVGAIHPVIQPVGQRKHLPASYLYRVVLLRLKLSPKNSAAPSGQRRPRLVIEECPLTSEAQTNDAAKELIEKINVAAKRGMKFVGFISQHYSPSKFCNGTNHDGDIESMLHVRHGSDENCRSWNEGTLSGQSSESGIEEELHHESGQYQMEQNGSPTSSKSRKGEASDNKLYTVFNAFDDDSTSWAYQEGILSMKVTRKGSVISTLDADWLELTTFYYKQGLSLIDSFVFWETSKGEHLPKSLEGFFIYEEEGSGVPGSSRKGNDAIVVEQWTVIEGCEIKTDYGPLLHTLAEFGWLLTSVLPTPVLRHDSEGNLATKQIVFLQRPVMWNSAAQTPDKKASRHIKGEDKNKATSRSIGLDTTSSQPAESRHLPEECRLSPSRECWTKEGRLAQHNSFSGFSSSDNVLRELDDGQFDQEDGVTQVTCM
Regarding B1, the binding result in experiment [2] is listed as “no binding”.
